Sequences and labels used below:
T1: Flag-tagged NUSAP1 full-length (nucleolar and spindle-associated protein 1) (human) (UniProt Q9BXS6)
T1 sequence: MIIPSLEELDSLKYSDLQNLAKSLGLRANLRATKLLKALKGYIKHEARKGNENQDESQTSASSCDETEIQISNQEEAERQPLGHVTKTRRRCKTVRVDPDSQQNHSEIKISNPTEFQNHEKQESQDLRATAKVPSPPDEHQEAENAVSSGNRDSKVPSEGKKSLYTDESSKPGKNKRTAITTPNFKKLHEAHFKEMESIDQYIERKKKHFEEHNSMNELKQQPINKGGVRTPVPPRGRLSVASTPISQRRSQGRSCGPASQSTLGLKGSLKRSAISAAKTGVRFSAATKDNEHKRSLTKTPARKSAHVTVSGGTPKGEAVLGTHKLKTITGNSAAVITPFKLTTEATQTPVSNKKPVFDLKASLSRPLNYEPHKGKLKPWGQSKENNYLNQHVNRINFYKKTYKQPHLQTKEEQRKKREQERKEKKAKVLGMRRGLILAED

By UniProt entry, the sequences of proteins in these tests, tags left out.
UniProt P35637: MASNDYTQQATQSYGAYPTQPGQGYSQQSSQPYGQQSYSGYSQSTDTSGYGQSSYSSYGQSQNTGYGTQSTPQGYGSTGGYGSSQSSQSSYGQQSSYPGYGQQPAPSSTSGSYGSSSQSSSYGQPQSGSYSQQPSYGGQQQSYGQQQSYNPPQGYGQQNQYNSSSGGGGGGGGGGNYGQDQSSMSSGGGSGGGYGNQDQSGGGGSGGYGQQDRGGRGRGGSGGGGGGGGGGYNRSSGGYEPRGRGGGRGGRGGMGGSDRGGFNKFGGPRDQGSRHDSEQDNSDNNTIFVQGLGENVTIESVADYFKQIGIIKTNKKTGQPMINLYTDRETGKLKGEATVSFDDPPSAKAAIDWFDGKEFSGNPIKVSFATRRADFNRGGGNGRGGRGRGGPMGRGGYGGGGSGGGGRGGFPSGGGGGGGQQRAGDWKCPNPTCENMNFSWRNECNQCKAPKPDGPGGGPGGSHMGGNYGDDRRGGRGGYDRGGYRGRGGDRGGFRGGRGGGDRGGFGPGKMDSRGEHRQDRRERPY
UniProt Q12905: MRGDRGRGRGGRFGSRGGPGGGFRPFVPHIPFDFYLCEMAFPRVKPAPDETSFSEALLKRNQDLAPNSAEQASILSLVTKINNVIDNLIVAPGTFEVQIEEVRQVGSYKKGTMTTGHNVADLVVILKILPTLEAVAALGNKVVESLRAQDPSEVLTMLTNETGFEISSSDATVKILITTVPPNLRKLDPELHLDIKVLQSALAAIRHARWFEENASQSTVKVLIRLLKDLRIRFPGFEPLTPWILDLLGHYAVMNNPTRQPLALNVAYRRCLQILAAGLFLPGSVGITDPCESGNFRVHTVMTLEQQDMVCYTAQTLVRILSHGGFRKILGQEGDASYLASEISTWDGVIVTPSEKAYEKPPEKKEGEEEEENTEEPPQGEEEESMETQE
UniProt Q14676: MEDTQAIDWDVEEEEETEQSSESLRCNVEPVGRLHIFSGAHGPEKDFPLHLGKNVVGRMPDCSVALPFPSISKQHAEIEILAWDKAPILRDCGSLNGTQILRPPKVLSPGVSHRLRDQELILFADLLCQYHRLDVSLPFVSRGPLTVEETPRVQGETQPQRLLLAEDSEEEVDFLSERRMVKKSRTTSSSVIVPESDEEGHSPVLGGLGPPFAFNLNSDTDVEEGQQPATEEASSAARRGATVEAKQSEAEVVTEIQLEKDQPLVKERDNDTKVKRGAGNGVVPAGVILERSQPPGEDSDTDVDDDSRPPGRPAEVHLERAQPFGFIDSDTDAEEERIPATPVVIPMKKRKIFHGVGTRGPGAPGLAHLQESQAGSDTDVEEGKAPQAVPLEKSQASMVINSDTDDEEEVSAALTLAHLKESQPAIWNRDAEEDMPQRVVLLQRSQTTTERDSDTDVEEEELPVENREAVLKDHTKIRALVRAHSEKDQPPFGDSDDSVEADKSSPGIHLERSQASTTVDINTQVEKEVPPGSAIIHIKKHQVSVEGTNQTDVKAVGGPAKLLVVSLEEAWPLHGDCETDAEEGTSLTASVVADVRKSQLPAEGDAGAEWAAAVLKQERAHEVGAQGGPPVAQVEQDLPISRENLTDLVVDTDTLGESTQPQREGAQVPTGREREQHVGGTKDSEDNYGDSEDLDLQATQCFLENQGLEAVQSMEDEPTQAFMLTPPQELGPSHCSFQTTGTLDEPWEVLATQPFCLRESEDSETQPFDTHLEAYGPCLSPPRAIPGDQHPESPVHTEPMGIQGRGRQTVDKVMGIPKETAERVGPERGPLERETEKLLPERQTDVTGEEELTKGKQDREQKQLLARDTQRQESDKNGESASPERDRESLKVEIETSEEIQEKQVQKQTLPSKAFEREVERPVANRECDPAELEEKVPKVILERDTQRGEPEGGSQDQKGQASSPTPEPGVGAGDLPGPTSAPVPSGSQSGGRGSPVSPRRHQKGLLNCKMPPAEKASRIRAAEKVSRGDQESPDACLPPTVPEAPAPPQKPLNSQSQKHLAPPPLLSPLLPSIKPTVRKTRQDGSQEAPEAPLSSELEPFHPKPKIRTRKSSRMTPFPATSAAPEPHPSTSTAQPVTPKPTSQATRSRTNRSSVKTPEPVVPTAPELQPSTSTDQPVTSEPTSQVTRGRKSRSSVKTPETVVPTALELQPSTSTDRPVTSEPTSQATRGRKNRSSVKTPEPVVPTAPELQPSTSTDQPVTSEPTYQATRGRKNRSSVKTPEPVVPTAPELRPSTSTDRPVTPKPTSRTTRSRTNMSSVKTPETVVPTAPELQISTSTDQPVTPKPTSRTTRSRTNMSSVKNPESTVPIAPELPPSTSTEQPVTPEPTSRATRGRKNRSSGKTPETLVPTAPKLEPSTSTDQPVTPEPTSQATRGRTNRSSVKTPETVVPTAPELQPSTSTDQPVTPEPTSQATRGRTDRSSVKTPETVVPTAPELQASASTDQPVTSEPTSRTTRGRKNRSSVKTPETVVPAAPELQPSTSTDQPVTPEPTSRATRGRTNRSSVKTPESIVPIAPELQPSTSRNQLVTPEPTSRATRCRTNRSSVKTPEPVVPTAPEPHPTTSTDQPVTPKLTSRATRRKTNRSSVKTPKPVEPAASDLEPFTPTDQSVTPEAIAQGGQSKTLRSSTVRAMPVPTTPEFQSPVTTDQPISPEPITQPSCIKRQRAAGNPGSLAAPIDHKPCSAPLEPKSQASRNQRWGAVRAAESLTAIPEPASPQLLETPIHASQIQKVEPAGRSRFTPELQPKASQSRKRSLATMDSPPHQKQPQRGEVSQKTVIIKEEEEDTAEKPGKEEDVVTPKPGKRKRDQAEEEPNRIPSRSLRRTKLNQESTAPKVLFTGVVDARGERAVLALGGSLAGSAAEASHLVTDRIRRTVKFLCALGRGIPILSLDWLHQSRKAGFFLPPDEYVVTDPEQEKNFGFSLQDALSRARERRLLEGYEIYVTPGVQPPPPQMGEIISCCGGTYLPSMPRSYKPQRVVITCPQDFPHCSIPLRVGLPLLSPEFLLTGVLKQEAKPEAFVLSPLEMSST
UniProt Q14980: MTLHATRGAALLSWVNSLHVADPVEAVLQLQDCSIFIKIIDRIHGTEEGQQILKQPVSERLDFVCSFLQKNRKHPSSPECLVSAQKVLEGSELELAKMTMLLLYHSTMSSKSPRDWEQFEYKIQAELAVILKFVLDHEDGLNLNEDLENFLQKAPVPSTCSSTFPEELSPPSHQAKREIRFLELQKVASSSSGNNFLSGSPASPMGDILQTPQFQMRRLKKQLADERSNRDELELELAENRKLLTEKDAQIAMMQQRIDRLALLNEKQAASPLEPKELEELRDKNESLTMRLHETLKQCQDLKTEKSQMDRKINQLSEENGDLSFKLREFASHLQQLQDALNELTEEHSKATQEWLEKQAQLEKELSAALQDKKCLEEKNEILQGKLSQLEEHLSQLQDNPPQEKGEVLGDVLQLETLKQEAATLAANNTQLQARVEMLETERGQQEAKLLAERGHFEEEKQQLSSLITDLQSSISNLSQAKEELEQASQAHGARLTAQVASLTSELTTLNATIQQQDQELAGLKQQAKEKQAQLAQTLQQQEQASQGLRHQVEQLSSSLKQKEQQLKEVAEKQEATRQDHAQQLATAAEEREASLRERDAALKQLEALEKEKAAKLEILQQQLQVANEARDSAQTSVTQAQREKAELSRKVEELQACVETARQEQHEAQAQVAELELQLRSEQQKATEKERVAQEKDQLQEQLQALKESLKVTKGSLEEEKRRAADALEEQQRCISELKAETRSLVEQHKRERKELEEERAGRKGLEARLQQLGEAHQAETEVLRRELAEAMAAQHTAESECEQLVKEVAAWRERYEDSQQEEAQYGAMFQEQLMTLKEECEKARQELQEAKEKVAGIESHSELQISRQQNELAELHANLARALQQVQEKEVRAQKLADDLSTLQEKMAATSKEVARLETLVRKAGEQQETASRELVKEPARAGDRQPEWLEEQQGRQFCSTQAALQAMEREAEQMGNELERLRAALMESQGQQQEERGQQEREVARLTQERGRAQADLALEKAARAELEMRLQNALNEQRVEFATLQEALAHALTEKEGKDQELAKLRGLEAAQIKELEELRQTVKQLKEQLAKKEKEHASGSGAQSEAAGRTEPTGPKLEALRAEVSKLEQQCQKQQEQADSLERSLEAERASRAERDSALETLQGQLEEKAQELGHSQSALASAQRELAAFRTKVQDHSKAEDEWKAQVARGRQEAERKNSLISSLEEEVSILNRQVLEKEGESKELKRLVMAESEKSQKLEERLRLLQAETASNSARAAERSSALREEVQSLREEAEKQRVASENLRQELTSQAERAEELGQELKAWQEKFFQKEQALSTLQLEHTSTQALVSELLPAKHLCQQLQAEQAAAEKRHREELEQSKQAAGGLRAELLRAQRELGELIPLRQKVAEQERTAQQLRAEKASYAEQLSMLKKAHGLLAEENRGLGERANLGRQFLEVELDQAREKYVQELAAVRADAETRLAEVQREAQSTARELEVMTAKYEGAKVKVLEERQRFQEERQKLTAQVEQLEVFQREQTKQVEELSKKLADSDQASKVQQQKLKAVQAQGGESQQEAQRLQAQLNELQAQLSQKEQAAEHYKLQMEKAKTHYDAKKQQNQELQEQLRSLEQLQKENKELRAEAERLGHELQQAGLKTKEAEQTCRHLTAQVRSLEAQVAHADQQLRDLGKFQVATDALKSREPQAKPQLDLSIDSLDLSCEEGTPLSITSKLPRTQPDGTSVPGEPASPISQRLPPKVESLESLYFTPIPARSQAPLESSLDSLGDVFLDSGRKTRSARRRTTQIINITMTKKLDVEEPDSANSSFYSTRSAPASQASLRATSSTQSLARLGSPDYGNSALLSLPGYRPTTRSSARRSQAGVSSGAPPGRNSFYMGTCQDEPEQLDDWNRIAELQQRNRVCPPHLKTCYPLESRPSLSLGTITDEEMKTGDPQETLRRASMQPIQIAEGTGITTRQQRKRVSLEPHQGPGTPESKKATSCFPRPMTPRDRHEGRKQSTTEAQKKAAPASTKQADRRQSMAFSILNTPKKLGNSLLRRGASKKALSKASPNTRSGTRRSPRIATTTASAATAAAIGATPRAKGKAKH
UniProt Q9UKM9: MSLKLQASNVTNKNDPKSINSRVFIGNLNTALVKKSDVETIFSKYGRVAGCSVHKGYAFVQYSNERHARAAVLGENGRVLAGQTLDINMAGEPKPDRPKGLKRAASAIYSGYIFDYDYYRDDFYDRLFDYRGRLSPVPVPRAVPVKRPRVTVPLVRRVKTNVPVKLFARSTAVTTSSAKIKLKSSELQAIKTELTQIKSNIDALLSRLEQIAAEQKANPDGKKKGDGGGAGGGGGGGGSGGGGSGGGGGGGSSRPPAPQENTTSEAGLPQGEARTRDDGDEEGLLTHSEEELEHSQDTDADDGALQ
UniProt Q86SE5: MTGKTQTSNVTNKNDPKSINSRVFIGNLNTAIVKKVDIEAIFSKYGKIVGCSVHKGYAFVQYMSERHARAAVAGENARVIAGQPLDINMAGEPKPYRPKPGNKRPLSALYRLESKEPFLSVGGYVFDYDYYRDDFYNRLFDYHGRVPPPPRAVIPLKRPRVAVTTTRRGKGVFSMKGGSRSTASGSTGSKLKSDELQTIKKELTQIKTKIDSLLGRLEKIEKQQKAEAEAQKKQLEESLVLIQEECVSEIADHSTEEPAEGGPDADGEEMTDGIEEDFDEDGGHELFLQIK
UniProt P38159: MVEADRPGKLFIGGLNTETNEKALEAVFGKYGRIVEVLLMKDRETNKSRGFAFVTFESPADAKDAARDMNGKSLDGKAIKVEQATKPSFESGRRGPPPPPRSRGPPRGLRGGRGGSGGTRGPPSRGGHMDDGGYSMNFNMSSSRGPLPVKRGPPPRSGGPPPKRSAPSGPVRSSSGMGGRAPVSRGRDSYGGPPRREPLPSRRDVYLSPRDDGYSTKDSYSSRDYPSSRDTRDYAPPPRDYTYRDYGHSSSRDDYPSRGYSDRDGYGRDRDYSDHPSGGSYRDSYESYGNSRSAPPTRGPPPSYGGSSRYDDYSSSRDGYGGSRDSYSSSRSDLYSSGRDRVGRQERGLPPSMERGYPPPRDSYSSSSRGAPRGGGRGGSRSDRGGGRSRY
UniProt Q96E39: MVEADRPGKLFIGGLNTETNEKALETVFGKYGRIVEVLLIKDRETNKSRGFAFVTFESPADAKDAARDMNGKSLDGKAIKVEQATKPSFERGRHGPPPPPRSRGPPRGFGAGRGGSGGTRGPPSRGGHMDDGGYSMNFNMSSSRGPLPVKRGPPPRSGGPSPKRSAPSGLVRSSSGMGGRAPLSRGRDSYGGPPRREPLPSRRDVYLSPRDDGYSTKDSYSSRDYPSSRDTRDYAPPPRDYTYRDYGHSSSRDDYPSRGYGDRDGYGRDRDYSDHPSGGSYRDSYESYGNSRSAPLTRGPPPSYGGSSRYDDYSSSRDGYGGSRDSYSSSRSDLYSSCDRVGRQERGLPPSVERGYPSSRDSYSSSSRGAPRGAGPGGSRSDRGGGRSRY

B1: ZNF346 (protein, UniProt Q9UL40 1-294)
chain: MEYPAPATVQAADGGAAGPYSSSELLEGQEPDGVRFDRERARRLWEAVSGAQPVGREEVEHMIQKNQCLFTNTQCKVCCALLISESQKLAHYQSKKHANKVKRYLAIHGMETLKGETKKLDSDQKSSRSKDKNQCCPICNMTFSSPVVAQSHYLGKTHAKNLKLKQQSTKVEALHQNREMIDPDKFCSLCHATFNDPVMAQQHYVGKKHRKQETKLKLMARYGRLADPAVTDFPAGKGYPCKTCKIVLNSIEQYQAHVSGFKHKNQSPKTVASSLGQIPMQRQPIQKDSTTLED
B2: ILF3 (protein, UniProt Q12906 1-894)
chain: MRPMRIFVNDDRHVMAKHSSVYPTQEELEAVQNMVSHTERALKAVSDWIDEQEKGSSEQAESDNMDVPPEDDSKEGAGEQKTEHMTRTLRGVMRVGLVAKGLLLKGDLDLELVLLCKEKPTTALLDKVADNLAIQLAAVTEDKYEILQSVDDAAIVIKNTKEPPLSLTIHLTSPVVREEMEKVLAGETLSVNDPPDVLDRQKCLAALASLRHAKWFQARANGLKSCVIVIRVLRDLCTRVPTWGPLRGWPLELLCEKSIGTANRPMGAGEALRRVLECLASGIVMPDGSGIYDPCEKEATDAIGHLDRQQREDITQSAQHALRLAAFGQLHKVLGMDPLPSKMPKKPKNENPVDYTVQIPPSTTYAITPMKRPMEEDGEEKSPSKKKKKIQKKEEKAEPPQAMNALMRLNQLKPGLQYKLVSQTGPVHAPIFTMSVEVDGNSFEASGPSKKTAKLHVAVKVLQDMGLPTGAEGRDSSKGEDSAEETEAKPAVVAPAPVVEAVSTPSAAFPSDATAEQGPILTKHGKNPVMELNEKRRGLKYELISETGGSHDKRFVMEVEVDGQKFQGAGSNKKVAKAYAALAALEKLFPDTPLALDANKKKRAPVPVRGGPKFAAKPHNPGFGMGGPMHNEVPPPPNLRGRGRGGSIRGRGRGRGFGGANHGGYMNAGAGYGSYGYGGNSATAGYSQFYSNGGHSGNASGGGGGGGGGSSGYGSYYQGDNYNSPVPPKHAGKKQPHGGQQKPSYGSGYQSHQGQQQSYNQSPYSNYGPPQGKQKGYNHGQGSYSYSNSYNSPGGGGGSDYNYESKFNYSGSGGRSGGNSYGSGGASYNPGSHGGYGGGSGGGSSYQGKQGGYSQSNYNSPGSGQNYSGPPSSYQSSQGGYGRNADHSMNYQYR

These are yes or no findings as the source states them, for the method shown. Binding seen in cells or lysates may run through a third protein. These calls come from enrichment with a bait or labelling near it, and not all partners need be listed. Tags and fused reporters may be left off the sequences shown.

The target of the experiment is T1, Flag-tagged NUSAP1 full-length (nucleolar and spindle-associated protein 1) (human). Nature of the experiment: affinity purification with mass spectrometry; 293T cells transiently transfected with Flag-NUSAP1 or empty vector, treated with nocodazole or DMSO for 24 h; lysis in 0.2% NP-40 buffer (50 mM Tris-HCl pH 8.0, 150 mM NaCl), micrococcal nuclease; anti-Flag M2 antibody and Protein-G Dynabeads, 4 °C; hits by SAINT (score > 0.9, BFDR < 0.05), triplicates.
With FUS (from UniProt P35637 1-526), the binding entry is “binds”.

As to ILF2 (from UniProt Q12905 1-390), the binding result is given as “binds”.

Regarding MDC1 (from UniProt Q14676 1-2089), the binding entry is reported as “binds”.

As to NUMA1 (from UniProt Q14980 1-2115), the binding result is “binds”.

Turning to PSIP1 (from UniProt O75475 1-530), the binding result is reported as “binds”.

Consider RALY (from UniProt Q9UKM9 1-306), for which the binding entry is “binds”.

Regarding RALYL (from UniProt Q86SE5 1-291), the binding entry is reported as “binds”.

Turning to RBMX (from UniProt P38159 1-391), the binding entry is given as “binds”.

For RMXL1 (from UniProt Q96E39 1-390), the binding result is “binds”.

As to B1, the binding entry is “binds”.

For the molecule B2, the binding result is “binds”.

For the origin of these results see paper PMC10093842.
